By UniProt entry, the sequences of proteins in these tests, tags left out. Where a name states a change or a piece, a line headed by the entry shows the natural chain unless it says otherwise.
UniProt P98161: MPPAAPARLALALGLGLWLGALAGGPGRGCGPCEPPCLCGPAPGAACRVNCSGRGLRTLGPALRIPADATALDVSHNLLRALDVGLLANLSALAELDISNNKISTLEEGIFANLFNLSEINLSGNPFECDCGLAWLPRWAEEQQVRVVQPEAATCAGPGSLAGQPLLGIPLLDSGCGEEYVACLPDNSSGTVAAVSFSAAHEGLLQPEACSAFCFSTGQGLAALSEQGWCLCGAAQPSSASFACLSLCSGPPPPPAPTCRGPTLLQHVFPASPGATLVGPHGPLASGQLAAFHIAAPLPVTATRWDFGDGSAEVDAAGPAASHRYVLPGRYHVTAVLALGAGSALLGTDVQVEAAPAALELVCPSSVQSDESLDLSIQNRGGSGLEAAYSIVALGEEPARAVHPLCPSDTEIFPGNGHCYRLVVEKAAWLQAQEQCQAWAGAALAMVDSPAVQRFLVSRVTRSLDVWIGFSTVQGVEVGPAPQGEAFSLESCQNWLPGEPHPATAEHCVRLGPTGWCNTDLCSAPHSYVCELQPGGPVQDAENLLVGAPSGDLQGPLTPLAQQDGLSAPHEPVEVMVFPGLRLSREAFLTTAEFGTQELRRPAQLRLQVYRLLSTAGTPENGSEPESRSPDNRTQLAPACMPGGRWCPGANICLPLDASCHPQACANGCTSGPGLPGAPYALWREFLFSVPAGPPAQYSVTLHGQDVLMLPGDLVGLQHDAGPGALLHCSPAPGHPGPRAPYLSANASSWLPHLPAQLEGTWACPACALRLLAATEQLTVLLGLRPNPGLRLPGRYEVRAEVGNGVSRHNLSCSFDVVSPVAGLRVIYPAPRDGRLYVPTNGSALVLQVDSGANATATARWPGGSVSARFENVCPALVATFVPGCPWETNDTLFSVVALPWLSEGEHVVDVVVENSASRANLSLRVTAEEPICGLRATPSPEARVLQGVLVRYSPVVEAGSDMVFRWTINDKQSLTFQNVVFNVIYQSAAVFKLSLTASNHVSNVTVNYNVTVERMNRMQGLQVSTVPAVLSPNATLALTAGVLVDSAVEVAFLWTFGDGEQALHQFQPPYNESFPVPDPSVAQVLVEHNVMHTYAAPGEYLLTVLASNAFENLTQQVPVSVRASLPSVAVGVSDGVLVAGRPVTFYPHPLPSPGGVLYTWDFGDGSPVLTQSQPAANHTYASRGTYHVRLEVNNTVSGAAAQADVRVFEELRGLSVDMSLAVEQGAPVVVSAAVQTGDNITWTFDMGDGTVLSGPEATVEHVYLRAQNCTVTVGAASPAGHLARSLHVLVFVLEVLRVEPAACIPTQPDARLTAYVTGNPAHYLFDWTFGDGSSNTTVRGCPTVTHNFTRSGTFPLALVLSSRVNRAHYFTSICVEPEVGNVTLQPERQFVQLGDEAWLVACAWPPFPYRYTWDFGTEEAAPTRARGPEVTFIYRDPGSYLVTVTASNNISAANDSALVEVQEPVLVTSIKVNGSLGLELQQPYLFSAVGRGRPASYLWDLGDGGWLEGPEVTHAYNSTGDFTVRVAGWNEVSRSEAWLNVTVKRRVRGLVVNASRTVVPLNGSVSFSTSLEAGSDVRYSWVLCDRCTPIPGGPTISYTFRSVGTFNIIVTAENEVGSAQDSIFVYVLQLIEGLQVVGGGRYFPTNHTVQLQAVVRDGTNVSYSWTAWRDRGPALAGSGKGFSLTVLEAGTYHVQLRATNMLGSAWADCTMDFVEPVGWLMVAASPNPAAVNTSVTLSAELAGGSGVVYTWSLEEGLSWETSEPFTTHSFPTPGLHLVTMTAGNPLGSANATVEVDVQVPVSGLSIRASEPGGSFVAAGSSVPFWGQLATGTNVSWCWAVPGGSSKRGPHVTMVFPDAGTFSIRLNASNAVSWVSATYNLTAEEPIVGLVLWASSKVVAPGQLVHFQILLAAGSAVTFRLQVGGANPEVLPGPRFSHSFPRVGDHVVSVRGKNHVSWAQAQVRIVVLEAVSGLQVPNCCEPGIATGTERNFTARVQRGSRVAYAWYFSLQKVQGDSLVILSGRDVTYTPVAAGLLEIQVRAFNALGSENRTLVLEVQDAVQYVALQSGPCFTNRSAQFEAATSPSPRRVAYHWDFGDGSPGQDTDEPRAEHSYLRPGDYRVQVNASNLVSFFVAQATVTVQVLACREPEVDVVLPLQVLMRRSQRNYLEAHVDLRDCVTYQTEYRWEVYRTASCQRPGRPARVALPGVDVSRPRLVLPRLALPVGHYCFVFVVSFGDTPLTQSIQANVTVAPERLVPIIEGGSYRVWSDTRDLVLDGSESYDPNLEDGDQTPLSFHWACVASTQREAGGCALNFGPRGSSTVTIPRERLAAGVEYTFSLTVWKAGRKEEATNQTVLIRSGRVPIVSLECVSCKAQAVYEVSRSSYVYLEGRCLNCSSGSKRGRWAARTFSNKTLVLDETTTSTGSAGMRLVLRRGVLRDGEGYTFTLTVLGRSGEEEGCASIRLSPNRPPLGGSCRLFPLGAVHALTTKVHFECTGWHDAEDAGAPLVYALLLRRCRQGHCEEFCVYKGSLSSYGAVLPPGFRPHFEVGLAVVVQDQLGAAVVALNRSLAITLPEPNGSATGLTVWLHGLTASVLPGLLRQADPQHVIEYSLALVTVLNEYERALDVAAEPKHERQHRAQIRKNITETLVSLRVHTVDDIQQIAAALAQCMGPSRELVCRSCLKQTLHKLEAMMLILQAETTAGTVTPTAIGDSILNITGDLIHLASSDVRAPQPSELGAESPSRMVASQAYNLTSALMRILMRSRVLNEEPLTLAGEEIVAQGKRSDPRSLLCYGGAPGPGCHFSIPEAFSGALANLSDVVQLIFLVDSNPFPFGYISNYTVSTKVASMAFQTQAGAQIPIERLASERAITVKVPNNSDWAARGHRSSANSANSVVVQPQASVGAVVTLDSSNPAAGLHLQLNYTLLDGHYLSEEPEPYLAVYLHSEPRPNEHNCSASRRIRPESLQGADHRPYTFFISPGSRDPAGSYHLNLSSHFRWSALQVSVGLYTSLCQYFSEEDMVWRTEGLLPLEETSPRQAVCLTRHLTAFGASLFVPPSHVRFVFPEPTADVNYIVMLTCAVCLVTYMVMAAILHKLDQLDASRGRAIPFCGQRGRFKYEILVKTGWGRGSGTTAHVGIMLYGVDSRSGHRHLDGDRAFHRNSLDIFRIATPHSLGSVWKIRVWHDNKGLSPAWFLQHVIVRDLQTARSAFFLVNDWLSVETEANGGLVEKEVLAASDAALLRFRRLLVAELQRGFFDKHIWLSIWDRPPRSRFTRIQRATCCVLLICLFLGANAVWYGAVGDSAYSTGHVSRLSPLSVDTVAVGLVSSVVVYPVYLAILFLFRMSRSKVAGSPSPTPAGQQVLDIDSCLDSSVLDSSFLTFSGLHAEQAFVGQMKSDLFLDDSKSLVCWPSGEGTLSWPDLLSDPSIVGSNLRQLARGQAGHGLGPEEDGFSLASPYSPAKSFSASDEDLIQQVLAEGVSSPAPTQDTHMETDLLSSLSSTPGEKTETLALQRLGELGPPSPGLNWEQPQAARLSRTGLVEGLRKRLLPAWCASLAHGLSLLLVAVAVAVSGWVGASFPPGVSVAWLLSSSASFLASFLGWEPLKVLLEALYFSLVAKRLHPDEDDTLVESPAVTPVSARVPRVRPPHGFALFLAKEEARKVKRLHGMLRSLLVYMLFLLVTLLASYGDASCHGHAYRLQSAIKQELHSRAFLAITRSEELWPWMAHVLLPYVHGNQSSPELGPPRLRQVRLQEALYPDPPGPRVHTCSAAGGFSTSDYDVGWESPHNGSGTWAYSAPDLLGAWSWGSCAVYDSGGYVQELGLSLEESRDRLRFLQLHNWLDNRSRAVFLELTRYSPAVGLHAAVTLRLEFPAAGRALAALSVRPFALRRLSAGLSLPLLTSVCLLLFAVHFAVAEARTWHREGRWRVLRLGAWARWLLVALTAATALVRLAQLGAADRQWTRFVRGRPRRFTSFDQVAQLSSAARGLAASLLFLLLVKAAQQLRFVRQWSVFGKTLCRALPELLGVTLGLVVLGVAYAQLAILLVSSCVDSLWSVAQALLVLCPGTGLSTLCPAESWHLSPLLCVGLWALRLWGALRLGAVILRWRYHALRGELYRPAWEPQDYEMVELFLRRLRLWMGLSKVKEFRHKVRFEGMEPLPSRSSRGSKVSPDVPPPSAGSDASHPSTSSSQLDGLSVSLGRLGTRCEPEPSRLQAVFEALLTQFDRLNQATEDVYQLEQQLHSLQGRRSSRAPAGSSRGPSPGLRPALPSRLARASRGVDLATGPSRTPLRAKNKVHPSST
UniProt P09217: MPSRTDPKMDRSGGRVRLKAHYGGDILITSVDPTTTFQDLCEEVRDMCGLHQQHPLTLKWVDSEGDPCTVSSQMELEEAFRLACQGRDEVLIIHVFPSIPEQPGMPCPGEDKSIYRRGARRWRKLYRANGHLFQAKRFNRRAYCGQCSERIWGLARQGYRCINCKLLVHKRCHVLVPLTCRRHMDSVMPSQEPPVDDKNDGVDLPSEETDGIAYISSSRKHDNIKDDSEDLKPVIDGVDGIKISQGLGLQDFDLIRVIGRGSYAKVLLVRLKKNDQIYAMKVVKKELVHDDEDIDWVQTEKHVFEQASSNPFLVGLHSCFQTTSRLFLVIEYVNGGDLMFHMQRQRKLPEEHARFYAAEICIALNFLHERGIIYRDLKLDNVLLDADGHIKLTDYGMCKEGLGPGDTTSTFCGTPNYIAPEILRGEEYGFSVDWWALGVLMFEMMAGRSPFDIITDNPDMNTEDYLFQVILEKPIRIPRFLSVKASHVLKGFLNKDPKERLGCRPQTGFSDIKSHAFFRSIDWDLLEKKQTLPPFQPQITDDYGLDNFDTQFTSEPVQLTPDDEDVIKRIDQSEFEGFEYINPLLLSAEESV

According to PMC9335328:

Target: C-terminal cytoplasmic PC1 tail with a C-terminal GST tag (PC1-p30-GST) (UniProt P98161)
Assay: pull-down; HEK293T cells co-transfected with PC1-p30-GST or GST and FLAG-PKCζ or myr-PKCζ-FLAG; lysates precipitated with glutathione-agarose, Western blot; lysis buffer 10 mM Tris-HCl pH 7.4, 150 mM NaCl, 1% Triton X-100, 4 °C, 1 h

- binding: binds
Substance: FLAG-PKCζ (from UniProt P09217 1-592) (enzyme)

These are yes or no findings as the source states them, for the method shown. In cells and extracts the contact can be indirect. Binding can be weak; no strength is given.
